Mtb cholesterol medium: 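Phenotypic screen: M. tuberculosis growth, cholesterol and DPPC medium, 4 days; the read-out is not stated. Concentration: 50 µM. Direction is inferred from retests: higher values go with more growth inhibition. Of about 69,000 compounds tested this way, about 370 (0.54%) reached 50% or more in at least one test.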
Mtb glucose medium: 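Growth of Mycobacterium tuberculosis over 3 days (7H9 medium with glucose and tyloxapol); the read-out is not stated. Compounds at 50 µM. The record gives no direction; compounds that gave an IC50 in retests scored well above the rest, so higher reads as more growth inhibition. Size under these conditions: about 69,000 compounds, about 760 of them at 50% or above in at least one test.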

The filed quantity is “Percent Effect” (%).
The record does not define 0% and 100%; most values in the screen are far below 50% and negative numbers occur (in some assays of this library far below -100).
The compounds are a random part of those screened.
Two or more numbers in one place are separate tests of the same structure; such repeats can differ widely.

{"smiles": "CCOC(=O)N[C@H]1C[C@@H](C(=O)NCCc2cccc(Cl)c2)N(C)C1", "Mtb cholesterol medium": 10.13, "Mtb glucose medium": -9.736}
{"smiles": "Cc1ccc(NC2CCN(C(=O)c3ccc(C#N)cc3)CC2)nn1", "Mtb cholesterol medium": -19.39, "Mtb glucose medium": -1.456}
{"smiles": "Cn1cc(CN2CCc3c(COCc4ccncc4)cncc3C2)cn1", "Mtb cholesterol medium": -15.97, "Mtb glucose medium": "-7.417 and 13.37"}
{"smiles": "[H][C@@]12C[C@H](C(=O)NC)[C@@]([H])(CN(C(=O)Nc3ccccc3)C1)O2", "Mtb cholesterol medium": -1.989, "Mtb glucose medium": 16.31}
{"smiles": "Cc1nnsc1C(=O)NCc1cccnc1N(C)Cc1ccccc1", "Mtb cholesterol medium": 18.98, "Mtb glucose medium": 19.99}
{"smiles": "CC(=O)Nc1ccc(CNC2CC(=O)N(Cc3cccc(F)c3)C2)cc1", "stereo": "stereo unspecified", "Mtb cholesterol medium": 25.57, "Mtb glucose medium": -14.18}
{"smiles": "CCNC(=O)NC(=O)CNc1cc(C(=O)OC)cc(C(F)(F)F)c1", "Mtb cholesterol medium": -10.79, "Mtb glucose medium": 2.606}
{"smiles": "N#Cc1cnn(C(=O)CCCOc2ccccc2Cl)c1N", "Mtb cholesterol medium": -18.03, "Mtb glucose medium": "-1.234 and -25.73"}
{"smiles": "COc1cc(CCC(=O)NC2CCN(C)CC2)ccc1OCC(F)(F)F", "Mtb cholesterol medium": 3.296, "Mtb glucose medium": 4.199}
{"smiles": "CCN(C)S(=O)(=O)N1CCCC(c2nc(-c3ccccc3)c[nH]2)C1", "stereo": "stereo unspecified", "Mtb cholesterol medium": "-5.732 and -29.35", "Mtb glucose medium": -40.81}
{"smiles": "N#Cc1ccc(N2CCC(c3nccn3Cc3cscn3)CC2)nc1", "Mtb cholesterol medium": "-0.8542 and 0.2993", "Mtb glucose medium": 5.816}
{"smiles": "CC(C)c1nnc2n1CC(CNCc1ccncc1)CC2", "stereo": "stereo unspecified", "Mtb cholesterol medium": -20.83, "Mtb glucose medium": "-15.73 and -15.99"}
{"smiles": "COc1nc(C)ccc1CNC(=O)NC(C)(C)c1ncc(C)s1", "Mtb cholesterol medium": 10.07, "Mtb glucose medium": 17.69}
{"smiles": "Cc1ccsc1CN(Cc1cccnc1)C1CC(C)(C)NC(C)(C)C1.O=C(O)CC(O)(CC(=O)O)C(=O)O", "Mtb cholesterol medium": -12.85, "Mtb glucose medium": 17.82}
{"smiles": "Cn1cc(Cl)c(CN2CCn3nc(C(=O)N4CCCC4)cc3C2)n1", "Mtb cholesterol medium": -7.208, "Mtb glucose medium": 10.38}
{"smiles": "CS(=O)(=O)NC1CC2(CCN(CCF)CC2)Oc2ccccc21.O=C(O)C(F)(F)F", "stereo": "stereo unspecified", "Mtb cholesterol medium": -30.43, "Mtb glucose medium": 0.5493}
{"smiles": "CCOc1ccc(NC(=O)c2cc(C)c(C)o2)cc1CO", "Mtb cholesterol medium": 26.76, "Mtb glucose medium": 33.63}
{"smiles": "COc1ccc(Cn2cc(C(=O)N(C)Cc3ccon3)nn2)cc1", "Mtb cholesterol medium": 11.91, "Mtb glucose medium": "-0.5243 and 21.38"}
{"smiles": "NC(=O)CC1CCN(C(=O)NCc2ccccc2-n2cccn2)CC1", "Mtb cholesterol medium": 10.39, "Mtb glucose medium": 6.506}
{"smiles": "CC(C)CC(=O)N1CCc2ccc(S(=O)(=O)N3CCN(C)CC3)cc2C1", "Mtb cholesterol medium": 20.69, "Mtb glucose medium": 33.56}
{"smiles": "CCOCc1cnc2n1CCN(C(=O)Cc1cccs1)C2C", "stereo": "stereo unspecified", "Mtb cholesterol medium": -12.59, "Mtb glucose medium": "-2.952 and -37.61"}
{"smiles": "[H][C@@]12CCN(Cc3ccncc3)C[C@@]1([H])O[C@@H](C(=O)N(C)C)C2", "Mtb cholesterol medium": -1.869, "Mtb glucose medium": -9.057}
{"smiles": "O=C(NCCN1CCCCC1)c1nc(-c2ccc3cc[nH]c3c2)no1", "Mtb cholesterol medium": 22.22, "Mtb glucose medium": 28.2}
{"smiles": "O=C1N(CCc2ccccc2)CCCC1(O)CNCc1ccc(F)cc1", "stereo": "stereo unspecified", "Mtb cholesterol medium": 7.327, "Mtb glucose medium": "-31.24 and -7.006"}
{"smiles": "CSc1ccccc1C(=O)N1C[C@@H](N(C)C)[C@H](c2ccc(C)cc2)C1", "Mtb cholesterol medium": 7.548, "Mtb glucose medium": -6.373}
{"smiles": "[H][C@]12CC[C@]([H])(CN(Cc3ccccc3)C1)N(C(=O)c1ccc(F)cc1F)C2", "Mtb cholesterol medium": 4.412, "Mtb glucose medium": 31.18}
{"smiles": "Cc1nn(C)cc1-c1ccnc(N2CCN(c3cnccn3)CC2)n1", "Mtb cholesterol medium": "-4.853 and -12.47", "Mtb glucose medium": -3.207}
{"smiles": "[H][C@@]12CN(Cc3cccnc3)C[C@]1([H])CN(C(=O)Cc1cccc(F)c1)C2", "Mtb cholesterol medium": 6.21, "Mtb glucose medium": -11.77}
{"smiles": "CCn1cc(CN2CCCN(C(=O)C3(C#N)CCCCC3)CC2)cn1", "Mtb cholesterol medium": -20.21, "Mtb glucose medium": "-24.69 and -6.627"}
{"smiles": "O=C(O)C(F)(F)F.[H][C@]12CC[C@@]3(N=C(C)N(CC4CC4)C3=O)[C@@]1([H])CN(Cc1cccc(Cl)c1)C2", "Mtb cholesterol medium": "3.964 and -0.9304", "Mtb glucose medium": -12.62}
{"smiles": "CC(CCN(C)C)NC(=O)c1cccc(C(F)(F)F)c1F", "stereo": "stereo unspecified", "Mtb cholesterol medium": -3.827, "Mtb glucose medium": -13.57}
{"smiles": "CC(Oc1ccccc1C#N)C(=O)NC1CC1", "stereo": "stereo unspecified", "Mtb cholesterol medium": 5.029, "Mtb glucose medium": 11.62}
{"smiles": "Cc1ccc(OCCC(=O)NC2CC(=O)N(C)C2)cc1C", "stereo": "stereo unspecified", "Mtb cholesterol medium": 5.872, "Mtb glucose medium": 3.153}
{"smiles": "Cc1ccc(N2CCc3ncnc(N(C)C)c3CC2)nn1", "Mtb cholesterol medium": -6.362, "Mtb glucose medium": -4.241}
{"smiles": "OC1(Cn2ccc3ncccc32)CCN(Cc2cc(F)cc(F)c2)CC1", "Mtb cholesterol medium": 3.584, "Mtb glucose medium": 23.27}
{"smiles": "Cc1cn2c(n1)C(CNCC1=Cc3cc(Cl)ccc3OC1)CCC2", "stereo": "stereo unspecified", "Mtb cholesterol medium": 34.63, "Mtb glucose medium": 51.44}
{"smiles": "CN(C)C[C@@H]1CN(C(=O)CCC2CCCC2)C[C@@H]1CO", "Mtb cholesterol medium": 3.723, "Mtb glucose medium": -5.46}
{"smiles": "Cc1cccc(NC(=O)c2ccc(-n3cncn3)nn2)n1", "Mtb cholesterol medium": 6.347, "Mtb glucose medium": "-6.243 and 8.692"}
{"smiles": "CN1CCN(CC2CC2)C(=O)C12CCN(c1nccs1)CC2", "Mtb cholesterol medium": 23.11, "Mtb glucose medium": "1.815 and -2.106"}
{"smiles": "O=C(NC1CC1)N1CCC2(CC1)CC(N1CCOCC1)c1ccccc12.O=C(O)C(F)(F)F", "stereo": "stereo unspecified", "Mtb cholesterol medium": -5.935, "Mtb glucose medium": 10.61}
{"smiles": "O=C(Cc1ccncc1)N(CCO)CCSc1ccc(Cl)cc1", "Mtb cholesterol medium": -27.37, "Mtb glucose medium": -8.708}
{"smiles": "O=C(NCCNc1ncccn1)N1CCN(c2nccs2)CC1", "Mtb cholesterol medium": -28, "Mtb glucose medium": -26.55}
{"smiles": "c1ccc(-c2nc(CCNCc3ccncc3)co2)cc1", "Mtb cholesterol medium": "-10.82 and 60.27", "Mtb glucose medium": 5.782}
{"smiles": "COCc1csc(NC(=O)NCc2ncccc2C)n1", "Mtb cholesterol medium": -18, "Mtb glucose medium": "-3 and 6.343"}
{"smiles": "CN1CCN(c2ccc(NS(=O)(=O)c3ccc(Br)s3)cc2C(=O)O)CC1", "Mtb cholesterol medium": -20.8, "Mtb glucose medium": -31.52}
{"smiles": "CC(C)S(=O)(=O)NCC(Cc1cccc(F)c1)N1CCNC1=O", "stereo": "stereo unspecified", "Mtb cholesterol medium": -8.283, "Mtb glucose medium": 5.07}
{"smiles": "COc1cc(C)nc(N2CCN(C(=O)CCc3cccs3)CC2)n1", "Mtb cholesterol medium": "13.5 and 14.48", "Mtb glucose medium": 30.57}
{"smiles": "COCCOc1ncccc1C(=O)N1CCCCC1c1nccs1", "stereo": "stereo unspecified", "Mtb cholesterol medium": -11.34, "Mtb glucose medium": 28.51}

Once more, the final 5:

- COCc1csc(NC(=O)NCc2ncccc2C)n1 : Mtb cholesterol medium: -18%; Mtb glucose medium: -3% and 6.343%
- CN1CCN(c2ccc(NS(=O)(=O)c3ccc(Br)s3)cc2C(=O)O)CC1 : Mtb cholesterol medium: -20.8%; Mtb glucose medium: -31.52%
- CC(C)S(=O)(=O)NCC(Cc1cccc(F)c1)N1CCNC1=O (stereo unspecified) : Mtb cholesterol medium: -8.283%; Mtb glucose medium: 5.07%
- COc1cc(C)nc(N2CCN(C(=O)CCc3cccs3)CC2)n1 : Mtb cholesterol medium: 13.5% and 14.48%; Mtb glucose medium: 30.57%
- COCCOc1ncccc1C(=O)N1CCCCC1c1nccs1 (stereo unspecified) : Mtb cholesterol medium: -11.34%; Mtb glucose medium: 28.51%

Data taken from ChEMBL document CHEMBL3988442, “University of Dundee, Small-Polar-MMV Screening Library” (2021).